The target in the experiment is T1, bZIP63, pSPYNE(R)173-bZIP63 (UniProt B9DGI8).
T1 sequence: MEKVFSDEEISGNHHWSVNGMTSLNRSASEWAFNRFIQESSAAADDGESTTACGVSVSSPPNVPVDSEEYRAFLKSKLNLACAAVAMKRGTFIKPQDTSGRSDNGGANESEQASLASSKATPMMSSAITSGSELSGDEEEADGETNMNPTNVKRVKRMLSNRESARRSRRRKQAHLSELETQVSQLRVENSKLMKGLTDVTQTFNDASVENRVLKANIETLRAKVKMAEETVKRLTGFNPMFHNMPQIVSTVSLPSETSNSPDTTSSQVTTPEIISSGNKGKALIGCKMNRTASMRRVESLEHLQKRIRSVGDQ
Description: split reporter; BiFC: pSPYNE(R)173 and pSPYCE(M) fusions transiently co-expressed in N. benthamiana leaves by Agrobacterium GV3101 infiltration, 2 days at about 21°C, laser confocal microscopy (488 nm excitation, 509 nm emission).

Results are given in words; binding and its absence hold for the method and conditions named. Binding seen in cells or lysates may run through a third protein. Some results given as binding are weak or reduced against the parent protein; the word gives no strength.

B1: bZIP1, pSPYCE(M)-bZIP1 (protein, UniProt Q9FGX2 1-145)
chain: MANAEKTSSGSDIDEKKRKRKLSNRESARRSRLKKQKLMEDTIHEISSLERRIKENSERCRAVKQRLDSVETENAGLRSEKIWLSSYVSDLENMIATTSLTLTQSGGGDCVDDQNANAGIAVGDCRRTPWKLSCGSLQPMASFKT
With B1, the binding result is “binds”.

These data come from paper PMC9520005.
